Measurements taken from patent publication US9611303B2, “Modified biotin-binding protein” (Japan Tobacco Inc., priority 2009, dated 2017).
Positions count from the first letter of the chain named. In names and notes the source's numbering stands.

B1: TM2 S36A-D116A: TM2 with 36th serine and 116th aspartic acid replaced with alanine; SEQ ID NO: 20 (protein)
chain: MSDVQSSLTGTWYNELNSKMELTANKDGTLTGKYLAKVGDVYVPYPLSGRYNLQPPAGQGVALGWAVSWENSKIHSATTWSGQFFSESSPVILTQWLLSSSTARGDVWESTLVGNASFTKTAPTEQQIAHAQLHCRAPRLK
modifications: Synthetic TM2 S36A-D116A
B2: TM2 D116A: TM2 in which the 116th aspartic acid was replaced with alanine; SEQ ID NO: 12 (protein)
chain: B1 chain with A36S
modifications: Synthetic TM2 D116A
B3: TM2 S36A: TM2 in which the 36th serine was replaced with alanine; SEQ ID NO: 6 (protein)
chain: B1 chain with A116D
modifications: Synthetic TM2 S36A
B4: TM2 A66R-V113R: TM2 with 66th alanine and 113th valine replaced with arginine (protein)
chain: B1 chain with A36S, A66R, V113R, A116D
B5: TM2 W69K: TM2 in which the 69th tryptophan was replaced with lysine (protein)
chain: B1 chain with A36S, W69K, A116D
B6: TM2P46T-D116A: TM2 with 46th proline replaced with threonine and 116th aspartic acid with alanine; SEQ ID NO: 16 (protein)
chain: B1 chain with A36S, P46T
modifications: Synthetic TM2 P46T-D116A
B7: TM2 A66R-L97T: TM2 double mutant A66R and L97T; not in the list of 30 forms, vector named in b302 (protein)
chain: B1 chain with A36S, A66R, L97T, A116D
B8: TM2 A66R-L97T-V113R: TM2 with A66R, L97T and V113R replacements (protein)
chain: B1 chain with A36S, A66R, L97T, V113R, A116D
B9: TM2 N14A: TM2 in which the 14th asparagine was replaced with alanine (protein)
chain: B1 chain with N14A, A36S, A116D
B10: TM2 W108E: TM2 in which the 108th tryptophan was replaced with glutamic acid (protein)
chain: B1 chain with A36S, W108E, A116D
B11: TM2 A66R: TM2 in which the 66th alanine was replaced with arginine (protein)
chain: B1 chain with A36S, A66R, A116D
B12: TM2 V113R: TM2 in which the 113th valine was replaced with arginine (protein)
chain: B1 chain with A36S, V113R, A116D
B13: TM2 T78A-D116A: TM2 with 78th threonine and 116th aspartic acid replaced with alanine; SEQ ID NO: 22 (protein)
chain: B1 chain with A36S, T78A
modifications: Synthetic TM2 T78A-D116A
B14: TM2P46T-T78A: TM2 with 46th proline replaced with threonine and 78th threonine with alanine; SEQ ID NO: 14 (protein)
chain: B1 chain with A36S, P46T, T78A, A116D
modifications: Synthetic TM2 P46T-T78A
B15: TM2 L97T-V113R: TM2 with 97th leucine replaced with threonine and 113th valine with arginine (protein)
chain: B1 chain with A36S, L97T, V113R, A116D
B16: TM2 T78A: TM2 in which the 78th threonine was replaced with alanine; SEQ ID NO: 10 (protein)
chain: B1 chain with A36S, T78A, A116D
modifications: Synthetic TM2 T78A
B17: TM2 S36A-T78A-D116A: TM2 with 36th serine, 78th threonine and 116th aspartic acid replaced with alanine; SEQ ID NO: 8 (protein)
chain: B1 chain with T78A
modifications: Synthetic TM2 S36A-T78A-D116A
B18: TM2 W80K: TM2 in which the 80th tryptophan was replaced with lysine; amino acid sequence SEQ ID NO: 4 (protein)
chain: B1 chain with A36S, W80K, A116D
modifications: Synthetic TM2 W80K
B19: TM2 W108K: TM2 in which the 108th tryptophan was replaced with lysine (protein)
chain: B1 chain with A36S, W108K, A116D
B20: TM2 L97T: TM2 in which the 97th leucine was replaced with threonine (protein)
chain: B1 chain with A36S, L97T, A116D
B21: WT-TM2: wild-type tamavidin 2, protein comprising the amino acid sequence SEQ ID NO: 2, from Pleurotus cornucopiae (protein, listed as Pleurotus cornucopiae)
chain: B1 chain with A36S, A116D

How the values were obtained:
[1] = Purification of LATM2 with 2-iminobiotin-agarose; type: binding
Procedure: LATM2 was purified through a column charged with 2-iminobiotin-agarose (manufactured by Sigma-Aldrich Corp.) in accordance with the method by Hofmann, et al., (1980). IPTG was added to 25 mL of a culture solution of E. coli transformed with each LATM2 in a final concentration of 1 mM to induce expression. The E. coli cells were collected by centrifugation, suspended in 1.5 mL of 50 mM CAPS (pH 12) containing 50 mM NaCl, and then sonicated. To the supernatant of the disrupted cells, 500 μL of 2-iminobiotin-agarose was added, which was then packed in a column. The column was sufficiently washed with 50 mM CAPS (pH 12) containing 500 mM NaCl, and elution was then performed with 50 mM NH4OAC (pH 4).
(§1) The recovery rate in Table 2 was calculated by dividing the amount of LATM2 protein after purification by the amount of LATM2 protein before purification and was expressed by percent by multiplying the quotient by 100. The degree of purification was the ratio of the amount of LATM2 protein to the total amount of proteins in the purified fraction and was expressed by percent by multiplying the ratio by 100. The recovery rates and the degrees of purification in biotin-agarose were the results after binding at pH 7 and elution with an excess amount of biotin.

[2] = Purification of LATM2 with biotin-agarose; type: binding; settings: for Degree of purification (%): Biotin-agarose, binding at pH 7, recovery with 10 mM biotin
Procedure: Purification with biotin-agarose (manufactured by Sigma-Aldrich Corp.) was performed by the following procedure. After induced expression of 25 mL of a culture solution of E. coli for each LATM2, the E. coli cells were suspended in 1.5 mL of a 100 mM potassium phosphate buffer (pH 7.0), and then sonicated. To the supernatant of the disrupted cells. 400 μL of biotin-agarose was added, which was followed by upside-down mixing for 1 hr. […]
In TM2 S36A-T78A-D116A, the E. coli cells were suspended in 1.5 mL of 50 mM CAPS (pH 12) containing 50 mM NaCl, and then sonicated. To the disrupted cells, 400 μL of biotin-agarose was added, which was followed by upside-down mixing for 1 hr. The column was sufficiently washed with 50 mM CAPS (pH 12) containing 500 mM NaCl, and elution was then performed with 1 mL of PBS (pH 7.4) containing 10 mM biotin.
In TM2 S36A-D116A, the E. coli cells were suspended in 1.5 mL of a 100 mM potassium phosphate buffer (pH 4.0), and then sonicated. To the pupernatant of the disrupted cells, 400 μL of biotin-agarose was added. Washing was performed with a 100 mM potassium phosphate buffer (pH 4) containing 500 mM NaCl, and elution was performed with 1 mL of PBS (pH 7) containing 10 mM biotin. Biotin binding to LATM2 that has been eluted with an excess amount of biotin was removed by dialysis with a 20 mM potassium phosphate buffer overnight.
as §1

Molecule	Degree of purification (%) [1] [%]	Degree of purification (%) [2] [%]	degree of purification ([2]; after binding at pH 4 and then dissociating at pH 7) [%]
B1	0	0	95
B2	95	95	–
B3	95	95	–
B4	0	0	–
B5	95	95	–
B6	95	95	–
B7	0	95	–
B8	0	95	–
B9	95	95	–
B10	95	95	–
B11	0	95	–
B12	0	95	–
B13	0	95	–
B14	95	95	–
B15	0	95	–
B16	95	95	–
B17	0	0	–
B18	95	95	–
B19	95	95	–
B20	0	0	–
B21	95	0	–
